From doi:10.1101/2023.04.08.536099

The chains behind the UniProt entries cited, without tags or fusion partners. Residues count along the entry.
UniProt P29965: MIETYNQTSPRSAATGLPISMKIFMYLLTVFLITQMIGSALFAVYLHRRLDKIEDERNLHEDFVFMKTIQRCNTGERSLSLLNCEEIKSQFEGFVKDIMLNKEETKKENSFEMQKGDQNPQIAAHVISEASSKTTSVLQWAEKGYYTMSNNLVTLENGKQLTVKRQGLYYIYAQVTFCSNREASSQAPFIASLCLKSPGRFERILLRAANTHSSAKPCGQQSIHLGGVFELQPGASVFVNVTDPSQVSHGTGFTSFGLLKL
UniProt P08575, residues 26-1306: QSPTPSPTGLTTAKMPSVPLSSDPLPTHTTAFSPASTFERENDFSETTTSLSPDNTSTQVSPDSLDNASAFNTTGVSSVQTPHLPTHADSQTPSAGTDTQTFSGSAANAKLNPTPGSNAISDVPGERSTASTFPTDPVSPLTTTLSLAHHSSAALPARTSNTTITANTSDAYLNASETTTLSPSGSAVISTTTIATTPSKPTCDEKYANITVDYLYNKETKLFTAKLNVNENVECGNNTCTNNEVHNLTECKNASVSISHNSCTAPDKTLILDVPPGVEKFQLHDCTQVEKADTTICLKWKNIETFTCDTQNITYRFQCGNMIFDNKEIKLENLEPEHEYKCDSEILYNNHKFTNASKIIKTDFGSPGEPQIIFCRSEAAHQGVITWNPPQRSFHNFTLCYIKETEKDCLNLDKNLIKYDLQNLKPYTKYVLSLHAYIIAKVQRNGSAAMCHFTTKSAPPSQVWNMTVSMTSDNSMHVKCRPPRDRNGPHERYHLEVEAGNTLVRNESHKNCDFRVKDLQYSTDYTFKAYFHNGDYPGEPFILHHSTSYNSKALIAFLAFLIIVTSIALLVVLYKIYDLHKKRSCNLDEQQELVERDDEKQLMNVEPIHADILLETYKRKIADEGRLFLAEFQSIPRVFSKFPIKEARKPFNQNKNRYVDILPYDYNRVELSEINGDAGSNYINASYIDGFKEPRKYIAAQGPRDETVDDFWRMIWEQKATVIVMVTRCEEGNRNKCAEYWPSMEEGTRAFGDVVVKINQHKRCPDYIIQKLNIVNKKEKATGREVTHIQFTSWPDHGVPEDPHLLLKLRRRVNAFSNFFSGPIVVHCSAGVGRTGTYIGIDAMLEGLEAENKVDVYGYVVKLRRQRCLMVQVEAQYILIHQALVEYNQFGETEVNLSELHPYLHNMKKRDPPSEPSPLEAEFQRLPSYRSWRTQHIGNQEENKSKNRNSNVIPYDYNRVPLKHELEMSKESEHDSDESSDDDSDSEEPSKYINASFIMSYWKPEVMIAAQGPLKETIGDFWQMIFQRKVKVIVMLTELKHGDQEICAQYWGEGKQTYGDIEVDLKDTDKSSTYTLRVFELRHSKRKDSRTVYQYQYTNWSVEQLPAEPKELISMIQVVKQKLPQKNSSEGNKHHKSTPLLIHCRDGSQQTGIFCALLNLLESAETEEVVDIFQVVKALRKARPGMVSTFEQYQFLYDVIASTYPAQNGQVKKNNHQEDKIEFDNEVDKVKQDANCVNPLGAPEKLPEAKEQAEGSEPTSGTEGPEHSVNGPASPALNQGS

Biological target: CD40L (UniProt P29965)
Assay: proximity labelling

binding: no binding
Substance: CD45 (from UniProt P08575 26-1306)

No constants are given. Whether binding was seen depends on the method and setting. Binding seen in cells or lysates may run through a third protein. These calls come from enrichment with a bait or labelling near it, and not all partners need be listed. A no says only that the protein was not detected with the bait.
